In EP0359745B1, “GROWTH FACTOR RECEPTOR” (IMPERIAL CANCER RESEARCH TECHNOLOGY LIMITED, priority 1987, dated 1988):
For part of these data: Not every detail of the peptide structures is certain; ends, links or a residue may be inferred. Some entries share one result that the patent states for a list of compounds.

Sequences of proteins named here, by UniProt entry; tags and fusion partners are left off. A change or cut given only in a name is not applied to a line headed by its entry.
UniProt P21729: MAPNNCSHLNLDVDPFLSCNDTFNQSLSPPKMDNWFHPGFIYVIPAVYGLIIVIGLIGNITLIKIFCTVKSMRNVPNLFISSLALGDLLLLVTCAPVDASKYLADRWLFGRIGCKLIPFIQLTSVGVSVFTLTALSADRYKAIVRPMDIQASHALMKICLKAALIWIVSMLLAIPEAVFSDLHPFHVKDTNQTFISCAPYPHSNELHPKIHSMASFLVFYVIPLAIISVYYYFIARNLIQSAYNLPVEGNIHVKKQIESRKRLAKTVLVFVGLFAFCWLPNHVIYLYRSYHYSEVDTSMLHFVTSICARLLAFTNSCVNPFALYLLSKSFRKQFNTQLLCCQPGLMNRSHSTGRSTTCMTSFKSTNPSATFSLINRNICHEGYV

Tests used:
Mr 75000-85000 protein [1] = target: T1, Mr 75000-85000 protein (Mus musculus, UniProt P21729); assay: ¹²⁵I-GRP affinity labelling (EGS cross-linking) of the Mr 75000-85000 protein in Swiss 3T3 cells, SDS-PAGE and scanning densitometry; type: binding; design: endogenous in cells; host or cells: Swiss 3T3 cells (mouse fibroblasts); conditions: summary of Table 1; saturating concentrations of the other mitogens
Procedure: (§1) After 2.5 h the cells were washed three times at 15°C with phosphate buffered saline (PBS) ad then incubated for 15 min at 15°C In 1 ml of binding medium, pH 7.4 In the presence of the appropriate cross-linking agent at the concentration indicated. The cross-linking agents (EGS, DSS, DSP and BSCOES) were dissolved in dimethyl sulphoxide immediately prior to use and were added to medium to give a final concentration of dimethylsulphoxide of 1-2%. The cultures were rapidly rinsed twice with PBS at 4°C and solubilized in 0.1ml of 2 x sample buffer 0.2 M Tris-HCl, pH 6.8, 10% (w/v) glycerol, 6% sodium dodecyl sulphate (SDS) (w/v) 4% β-mercaptoethanol (v/v) and 2 mM ethylenediaminetetraacetic acid. Samples were immediately heated at 100°C for 3-5 min and analysed by either one or two-dimensional gel electrophoresis.
(§2) Slab gel electrophoresis was performed using 7.5% acrylamide in the separating gel ad 5% in the stacking gel, ad 0.1% SDS (31). […] The Mr 75000-85000 band from autoradiograms was scanned using a Joyce-Loebl double beam densitometer and the areas under specific peaks were measured with a Hewlett-Packard digitizer.
After this time some cells were washed four times with cold (4°C) PBS supplemented with 1 mg/ml BSA, solubilized and total cell associated radioactivity was then determined in a gamma counter. […] The cells were then solubilized and samples were analyzed by SDS-PAGE. […]

Mr 75000-85000 protein [2] = target: T1, Mr 75000-85000 protein; assay: as above; type: binding; design: endogenous in cells; host or cells: Swiss 3T3 cells (confluent, quiescent, intact); conditions: summary of Table 1; saturating concentrations of the other mitogens
Procedure: as §1, §2
Confluent cultures of 3T3 cells were incubated with 5 nM ¹²⁵I-GRP in the presence of varying concentrations of non-radioactive ligand at 15°C for 2.5 h. […] The cells were then solubilized and samples were analyzed by SDS-PAGE. […]

Row | SMILES | cross-linking of ¹²⁵I-GRP / level of the Mr 75000-85000 protein (in words) (Mr 75000-85000 protein [1]) | cross-linking of ¹²⁵I-GRP / level of the Mr 75000-85000 protein (in words) (Mr 75000-85000 protein [2])
1 | CSCC[C@H](NC(=O)[C@H](Cc1ccccc1)NC(=O)[C@H](Cc1c[nH]cn1)NC(=O)CNC(=O)[C@@H](NC(=O)[C@H](C)NC(=O)[C@H](Cc1c[nH]c2ccccc12)NC(=O)[C@H](CCC(N)=O)NC(=O)[C@@H]1CCC(=O)N1)C(C)C)C(N)=O [Litorin] | markedly inhibited | 
2 | CSCC[C@H](NC(=O)[C@H](Cc1ccccc1)NC(=O)[C@H](Cc1c[nH]cn1)NC(=O)CNC(=O)[C@@H](NC(=O)[C@H](C)NC(=O)[C@H](Cc1c[nH]c2ccccc12)NC(=O)[C@H](CC(C)C)NC(=O)[C@H](CC(N)=O)NC(=O)CN)[C@@H](C)O)C(N)=O [Neuromedin B] | markedly inhibited | 
3 | CCCC(=O)O[C@@H]1[C@@H](C)[C@@]2(O)[C@@H](C=C(CO)C[C@]3(O)C(=O)C(C)=C[C@@H]23)[C@@H]2C(C)(C)[C@]12OC(=O)CCC [Phorbol 12,13-dibutyrate] |  | not substantially affected
